PMC4604457
Results are given in words; binding and its absence hold for the method and conditions named. A result given as binding can be weak or reduced; the word gives no strength. For part of these data: Where a sequence is shown, tags or fusion partners need not be part of it. For part of these data: In cells and extracts the contact can be indirect.

Columns and labels:
[1] = target: T1, HEV ORF3 protein (O3), LuMPIS construct (Hepatitis E virus genotype 1) (UniProt O90299); test: pull-down; LuMPIS: N-MBP bait and N-eGFP-Luc prey co-transfected in HEK 293T; bait captured from cleared lysate on amylose beads (20 mM Tris-HCl, 200 mM NaCl, 1 mM EDTA), eluted with 10 mM maltose; luciferase activity of the co-eluted prey; positive if the LIR differs from the control (Dunnett, p < 0.01)
T1 sequence: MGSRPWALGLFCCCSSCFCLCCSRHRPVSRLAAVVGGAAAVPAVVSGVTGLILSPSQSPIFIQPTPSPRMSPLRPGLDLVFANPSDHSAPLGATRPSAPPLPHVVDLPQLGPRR

[2] = target: T2, HEV ORF3 protein (O3), two-hybrid fusion (Hepatitis E virus genotype 1) (UniProt O90299); test: two-hybrid; CN: bait with C-terminal Gal4 DBD (pGBKCg), prey with N-terminal Gal4 AD (pGADT7g); array-based mating, all against all; growth on SD-leu-trp-his with 3-AT at the bait's minimum inhibitory concentration (Table 2: 0, 3 or 10 mM; Table 3: 1 mM); 7 days, 30 °C
T2 sequence: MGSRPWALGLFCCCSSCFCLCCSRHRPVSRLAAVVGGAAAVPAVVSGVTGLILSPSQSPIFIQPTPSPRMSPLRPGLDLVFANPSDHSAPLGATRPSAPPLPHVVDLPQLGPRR

[3] = target: T2, HEV ORF3 protein (O3), two-hybrid fusion (Hepatitis E virus genotype 1); test: two-hybrid; NN: bait with N-terminal Gal4 DBD (pGBKT7g), prey with N-terminal Gal4 AD (pGADT7g); array-based mating, all against all; growth on SD-leu-trp-his with 3-AT at the bait's minimum inhibitory concentration (Table 2: 0, 3 or 10 mM; Table 3: 1 mM); 7 days, 30 °C
[4] = target: T2, HEV ORF3 protein (O3), two-hybrid fusion (Hepatitis E virus genotype 1); test: two-hybrid; CC: bait with C-terminal Gal4 DBD (pGBKCg), prey with C-terminal Gal4 AD (pGADCg); array-based mating, all against all; growth on SD-leu-trp-his with 3-AT at the bait's minimum inhibitory concentration (Table 2: 0, 3 or 10 mM; Table 3: 1 mM); 7 days, 30 °C
[5] = target: T2, HEV ORF3 protein (O3), two-hybrid fusion (Hepatitis E virus genotype 1); test: two-hybrid; NC: bait with N-terminal Gal4 DBD (pGBKT7g), prey with C-terminal Gal4 AD (pGADCg); array-based mating, all against all; growth on SD-leu-trp-his with 3-AT at the bait's minimum inhibitory concentration (Table 2: 0, 3 or 10 mM; Table 3: 1 mM); 7 days, 30 °C
[6] = target: RNA dependent RNA polymerase domain of HEV ORF1 (Rdrp), LuMPIS construct (Hepatitis E virus genotype 1); test: pull-down; LuMPIS: N-MBP bait and N-eGFP-Luc prey co-transfected in HEK 293T; bait captured from cleared lysate on amylose beads (20 mM Tris-HCl, 200 mM NaCl, 1 mM EDTA), eluted with 10 mM maltose; luciferase activity of the co-eluted prey; positive if the LIR differs from the control (Dunnett, p < 0.01)
[7] = target: X domain of HEV ORF1 (X), LuMPIS construct (Hepatitis E virus genotype 1); test: as above
[8] = target: Helicase domain of HEV ORF1 (Hel), LuMPIS construct (Hepatitis E virus genotype 1); test: as above
[9] = target: Papain-like protease domain of HEV ORF1 (Plp), LuMPIS construct (Hepatitis E virus genotype 1); test: as above
[10] = target: Methyltransferase domain of HEV ORF1 (Met), LuMPIS construct (Hepatitis E virus genotype 1); test: as above
[11] = target: Methyltransferase domain of HEV ORF1 (Met), two-hybrid fusion (Hepatitis E virus genotype 1); test: two-hybrid; CN: bait with C-terminal Gal4 DBD (pGBKCg), prey with N-terminal Gal4 AD (pGADT7g); array-based mating, all against all; growth on SD-leu-trp-his with 3-AT at the bait's minimum inhibitory concentration (Table 2: 0, 3 or 10 mM; Table 3: 1 mM); 7 days, 30 °C
[12] = target: X domain of HEV ORF1 (X), two-hybrid fusion (Hepatitis E virus genotype 1); test: as above
[13] = target: RNA dependent RNA polymerase domain of HEV ORF1 (Rdrp), two-hybrid fusion (Hepatitis E virus genotype 1); test: two-hybrid; NN: bait with N-terminal Gal4 DBD (pGBKT7g), prey with N-terminal Gal4 AD (pGADT7g); array-based mating, all against all; growth on SD-leu-trp-his with 3-AT at the bait's minimum inhibitory concentration (Table 2: 0, 3 or 10 mM; Table 3: 1 mM); 7 days, 30 °C
[14] = target: Helicase domain of HEV ORF1 (Hel), two-hybrid fusion (Hepatitis E virus genotype 1); test: as above
[15] = target: Methyltransferase domain of HEV ORF1 (Met), two-hybrid fusion (Hepatitis E virus genotype 1); test: as above
[16] = target: X domain of HEV ORF1 (X), two-hybrid fusion (Hepatitis E virus genotype 1); test: as above
[17] = target: Papain-like protease domain of HEV ORF1 (Plp), two-hybrid fusion (Hepatitis E virus genotype 1); test: as above
[18] = target: Methyltransferase domain of HEV ORF1 (Met), two-hybrid fusion (Hepatitis E virus genotype 1); test: two-hybrid; CC: bait with C-terminal Gal4 DBD (pGBKCg), prey with C-terminal Gal4 AD (pGADCg); array-based mating, all against all; growth on SD-leu-trp-his with 3-AT at the bait's minimum inhibitory concentration (Table 2: 0, 3 or 10 mM; Table 3: 1 mM); 7 days, 30 °C
[19] = target: X domain of HEV ORF1 (X), two-hybrid fusion (Hepatitis E virus genotype 1); test: as above
[20] = target: RNA dependent RNA polymerase domain of HEV ORF1 (Rdrp), two-hybrid fusion (Hepatitis E virus genotype 1); test: two-hybrid; NC: bait with N-terminal Gal4 DBD (pGBKT7g), prey with C-terminal Gal4 AD (pGADCg); array-based mating, all against all; growth on SD-leu-trp-his with 3-AT at the bait's minimum inhibitory concentration (Table 2: 0, 3 or 10 mM; Table 3: 1 mM); 7 days, 30 °C
[21] = target: Methyltransferase domain of HEV ORF1 (Met), two-hybrid fusion (Hepatitis E virus genotype 1); test: as above
[22] = target: X domain of HEV ORF1 (X), two-hybrid fusion (Hepatitis E virus genotype 1); test: as above
[23] = target: Papain-like protease domain of HEV ORF1 (Plp), two-hybrid fusion (Hepatitis E virus genotype 1); test: as above

Measured: binding

Papain-like protease domain of HEV ORF1 (Plp), LuMPIS construct (Hepatitis E virus genotype 1) (domain or fragment)
binds: [1]

Papain-like protease domain of HEV ORF1 (Plp), two-hybrid fusion (Hepatitis E virus genotype 1) (domain or fragment)
binds: [2]

X domain of HEV ORF1 (X), two-hybrid fusion (Hepatitis E virus genotype 1) (domain or fragment)
binds: [2] | [3] | [4] | [5]

B1: HEV ORF3 protein (O3), LuMPIS construct (protein, UniProt O90299 1-114)
chain: MGSRPWALGLFCCCSSCFCLCCSRHRPVSRLAAVVGGAAAVPAVVSGVTGLILSPSQSPIFIQPTPSPRMSPLRPGLDLVFANPSDHSAPLGATRPSAPPLPHVVDLPQLGPRR
binds: [6] | [7] | [8] | [9] | [10]

B2: HEV ORF3 protein (O3), two-hybrid fusion (protein, UniProt O90299 1-114)
chain: MGSRPWALGLFCCCSSCFCLCCSRHRPVSRLAAVVGGAAAVPAVVSGVTGLILSPSQSPIFIQPTPSPRMSPLRPGLDLVFANPSDHSAPLGATRPSAPPLPHVVDLPQLGPRR
not listed: [1] | [2] | [3] | [4] | [5] | [6] | [7] | [8] | [9] | [10]
binds: all other assays above
